# The supplement of paper PMC12819154, “High-throughput peptide-centric local stability assay extends protein–ligand identification to membrane proteins, tissues and bacteria” (Nature Structural & Molecular Biology, 2025)
# Amino acid sequences for entries named in this document (tags omitted). A change or cut given only in a name is not applied to a line headed by its entry.
# UniProt A6NKD9: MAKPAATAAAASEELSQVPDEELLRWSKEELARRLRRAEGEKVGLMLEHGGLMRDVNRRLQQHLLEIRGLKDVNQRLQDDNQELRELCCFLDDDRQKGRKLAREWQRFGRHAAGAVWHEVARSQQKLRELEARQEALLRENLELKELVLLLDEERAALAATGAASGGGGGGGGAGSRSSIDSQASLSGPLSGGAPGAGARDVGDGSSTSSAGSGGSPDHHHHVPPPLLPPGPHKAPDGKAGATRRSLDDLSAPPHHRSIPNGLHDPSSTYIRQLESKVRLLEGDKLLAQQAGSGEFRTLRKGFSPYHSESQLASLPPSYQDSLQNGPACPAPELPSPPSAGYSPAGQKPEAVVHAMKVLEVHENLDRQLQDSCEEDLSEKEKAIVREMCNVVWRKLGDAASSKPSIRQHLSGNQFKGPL
# UniProt A6NMK7: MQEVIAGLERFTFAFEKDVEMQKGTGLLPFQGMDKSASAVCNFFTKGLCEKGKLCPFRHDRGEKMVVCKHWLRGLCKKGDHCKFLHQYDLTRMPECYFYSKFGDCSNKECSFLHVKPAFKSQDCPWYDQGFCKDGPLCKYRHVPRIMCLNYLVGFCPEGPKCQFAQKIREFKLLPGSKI
# UniProt A6NDG6: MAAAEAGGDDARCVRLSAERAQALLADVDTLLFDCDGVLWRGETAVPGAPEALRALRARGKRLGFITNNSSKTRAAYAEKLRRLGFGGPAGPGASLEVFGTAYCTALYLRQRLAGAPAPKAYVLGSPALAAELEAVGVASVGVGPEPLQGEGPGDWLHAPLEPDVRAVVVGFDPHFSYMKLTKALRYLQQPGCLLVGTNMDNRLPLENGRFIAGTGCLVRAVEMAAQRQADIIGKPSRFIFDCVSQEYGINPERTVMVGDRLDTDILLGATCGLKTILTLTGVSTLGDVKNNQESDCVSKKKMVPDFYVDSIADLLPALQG
# UniProt A2RTX5: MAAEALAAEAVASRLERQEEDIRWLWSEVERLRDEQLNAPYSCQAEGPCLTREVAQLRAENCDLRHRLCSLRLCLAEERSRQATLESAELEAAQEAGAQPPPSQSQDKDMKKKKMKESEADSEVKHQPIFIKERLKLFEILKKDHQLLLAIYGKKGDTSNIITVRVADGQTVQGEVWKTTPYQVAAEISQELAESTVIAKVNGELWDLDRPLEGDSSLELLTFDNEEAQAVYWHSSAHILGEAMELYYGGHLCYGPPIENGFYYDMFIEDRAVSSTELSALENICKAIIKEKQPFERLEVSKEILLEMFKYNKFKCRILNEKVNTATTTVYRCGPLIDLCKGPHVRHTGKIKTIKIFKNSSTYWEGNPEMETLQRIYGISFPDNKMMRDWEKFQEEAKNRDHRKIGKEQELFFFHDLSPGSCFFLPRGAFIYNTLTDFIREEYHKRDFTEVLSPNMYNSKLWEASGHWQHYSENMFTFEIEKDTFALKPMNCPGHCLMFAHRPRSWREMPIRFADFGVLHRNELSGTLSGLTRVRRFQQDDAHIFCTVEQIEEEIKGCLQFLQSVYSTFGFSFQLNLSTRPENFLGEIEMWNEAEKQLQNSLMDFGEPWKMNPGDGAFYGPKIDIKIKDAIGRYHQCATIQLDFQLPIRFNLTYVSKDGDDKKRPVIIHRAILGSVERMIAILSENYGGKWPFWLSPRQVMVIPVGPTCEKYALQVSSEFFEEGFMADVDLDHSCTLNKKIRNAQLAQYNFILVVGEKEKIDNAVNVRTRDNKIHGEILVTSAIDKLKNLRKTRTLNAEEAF
# UniProt A4D1P6: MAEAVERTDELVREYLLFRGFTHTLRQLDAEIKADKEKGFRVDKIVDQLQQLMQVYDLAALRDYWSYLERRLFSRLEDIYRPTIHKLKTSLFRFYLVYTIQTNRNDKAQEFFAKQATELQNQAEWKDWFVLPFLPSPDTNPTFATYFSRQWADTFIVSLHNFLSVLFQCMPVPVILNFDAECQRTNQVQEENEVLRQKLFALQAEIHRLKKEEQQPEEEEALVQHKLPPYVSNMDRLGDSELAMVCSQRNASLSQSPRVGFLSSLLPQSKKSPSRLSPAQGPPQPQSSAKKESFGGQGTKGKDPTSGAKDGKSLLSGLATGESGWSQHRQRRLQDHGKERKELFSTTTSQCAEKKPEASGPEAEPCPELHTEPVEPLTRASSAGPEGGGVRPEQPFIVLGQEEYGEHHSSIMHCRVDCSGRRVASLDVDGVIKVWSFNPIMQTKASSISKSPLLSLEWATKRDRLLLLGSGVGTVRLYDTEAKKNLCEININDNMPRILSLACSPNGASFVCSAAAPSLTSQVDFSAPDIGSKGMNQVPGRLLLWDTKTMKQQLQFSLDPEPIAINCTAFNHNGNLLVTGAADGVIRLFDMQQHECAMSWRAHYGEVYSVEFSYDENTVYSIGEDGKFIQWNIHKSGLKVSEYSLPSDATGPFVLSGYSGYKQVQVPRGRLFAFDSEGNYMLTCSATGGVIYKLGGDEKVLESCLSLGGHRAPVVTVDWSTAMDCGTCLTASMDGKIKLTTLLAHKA
# UniProt A6NKF1: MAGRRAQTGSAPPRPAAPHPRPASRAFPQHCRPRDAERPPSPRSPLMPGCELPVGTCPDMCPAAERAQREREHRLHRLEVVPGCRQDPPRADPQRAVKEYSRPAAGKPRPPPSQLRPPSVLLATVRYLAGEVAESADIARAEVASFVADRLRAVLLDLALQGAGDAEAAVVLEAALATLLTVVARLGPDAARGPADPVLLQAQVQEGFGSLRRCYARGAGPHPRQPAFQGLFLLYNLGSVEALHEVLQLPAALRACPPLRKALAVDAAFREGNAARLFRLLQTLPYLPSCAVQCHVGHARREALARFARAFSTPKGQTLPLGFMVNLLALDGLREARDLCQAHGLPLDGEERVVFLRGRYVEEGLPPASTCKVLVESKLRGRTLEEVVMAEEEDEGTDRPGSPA
# UniProt A4D2B8: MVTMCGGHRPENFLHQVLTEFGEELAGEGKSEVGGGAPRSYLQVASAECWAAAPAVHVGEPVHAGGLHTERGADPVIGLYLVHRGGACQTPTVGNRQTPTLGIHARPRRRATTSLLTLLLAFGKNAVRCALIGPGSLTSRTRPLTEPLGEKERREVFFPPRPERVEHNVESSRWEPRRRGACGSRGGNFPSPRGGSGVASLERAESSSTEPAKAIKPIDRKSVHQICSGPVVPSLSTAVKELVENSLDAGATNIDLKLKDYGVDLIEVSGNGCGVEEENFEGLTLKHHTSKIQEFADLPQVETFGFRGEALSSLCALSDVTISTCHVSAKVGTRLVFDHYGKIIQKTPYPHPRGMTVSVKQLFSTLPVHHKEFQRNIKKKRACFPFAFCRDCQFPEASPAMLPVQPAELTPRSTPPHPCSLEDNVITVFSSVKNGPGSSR
# UniProt A6H8Y1: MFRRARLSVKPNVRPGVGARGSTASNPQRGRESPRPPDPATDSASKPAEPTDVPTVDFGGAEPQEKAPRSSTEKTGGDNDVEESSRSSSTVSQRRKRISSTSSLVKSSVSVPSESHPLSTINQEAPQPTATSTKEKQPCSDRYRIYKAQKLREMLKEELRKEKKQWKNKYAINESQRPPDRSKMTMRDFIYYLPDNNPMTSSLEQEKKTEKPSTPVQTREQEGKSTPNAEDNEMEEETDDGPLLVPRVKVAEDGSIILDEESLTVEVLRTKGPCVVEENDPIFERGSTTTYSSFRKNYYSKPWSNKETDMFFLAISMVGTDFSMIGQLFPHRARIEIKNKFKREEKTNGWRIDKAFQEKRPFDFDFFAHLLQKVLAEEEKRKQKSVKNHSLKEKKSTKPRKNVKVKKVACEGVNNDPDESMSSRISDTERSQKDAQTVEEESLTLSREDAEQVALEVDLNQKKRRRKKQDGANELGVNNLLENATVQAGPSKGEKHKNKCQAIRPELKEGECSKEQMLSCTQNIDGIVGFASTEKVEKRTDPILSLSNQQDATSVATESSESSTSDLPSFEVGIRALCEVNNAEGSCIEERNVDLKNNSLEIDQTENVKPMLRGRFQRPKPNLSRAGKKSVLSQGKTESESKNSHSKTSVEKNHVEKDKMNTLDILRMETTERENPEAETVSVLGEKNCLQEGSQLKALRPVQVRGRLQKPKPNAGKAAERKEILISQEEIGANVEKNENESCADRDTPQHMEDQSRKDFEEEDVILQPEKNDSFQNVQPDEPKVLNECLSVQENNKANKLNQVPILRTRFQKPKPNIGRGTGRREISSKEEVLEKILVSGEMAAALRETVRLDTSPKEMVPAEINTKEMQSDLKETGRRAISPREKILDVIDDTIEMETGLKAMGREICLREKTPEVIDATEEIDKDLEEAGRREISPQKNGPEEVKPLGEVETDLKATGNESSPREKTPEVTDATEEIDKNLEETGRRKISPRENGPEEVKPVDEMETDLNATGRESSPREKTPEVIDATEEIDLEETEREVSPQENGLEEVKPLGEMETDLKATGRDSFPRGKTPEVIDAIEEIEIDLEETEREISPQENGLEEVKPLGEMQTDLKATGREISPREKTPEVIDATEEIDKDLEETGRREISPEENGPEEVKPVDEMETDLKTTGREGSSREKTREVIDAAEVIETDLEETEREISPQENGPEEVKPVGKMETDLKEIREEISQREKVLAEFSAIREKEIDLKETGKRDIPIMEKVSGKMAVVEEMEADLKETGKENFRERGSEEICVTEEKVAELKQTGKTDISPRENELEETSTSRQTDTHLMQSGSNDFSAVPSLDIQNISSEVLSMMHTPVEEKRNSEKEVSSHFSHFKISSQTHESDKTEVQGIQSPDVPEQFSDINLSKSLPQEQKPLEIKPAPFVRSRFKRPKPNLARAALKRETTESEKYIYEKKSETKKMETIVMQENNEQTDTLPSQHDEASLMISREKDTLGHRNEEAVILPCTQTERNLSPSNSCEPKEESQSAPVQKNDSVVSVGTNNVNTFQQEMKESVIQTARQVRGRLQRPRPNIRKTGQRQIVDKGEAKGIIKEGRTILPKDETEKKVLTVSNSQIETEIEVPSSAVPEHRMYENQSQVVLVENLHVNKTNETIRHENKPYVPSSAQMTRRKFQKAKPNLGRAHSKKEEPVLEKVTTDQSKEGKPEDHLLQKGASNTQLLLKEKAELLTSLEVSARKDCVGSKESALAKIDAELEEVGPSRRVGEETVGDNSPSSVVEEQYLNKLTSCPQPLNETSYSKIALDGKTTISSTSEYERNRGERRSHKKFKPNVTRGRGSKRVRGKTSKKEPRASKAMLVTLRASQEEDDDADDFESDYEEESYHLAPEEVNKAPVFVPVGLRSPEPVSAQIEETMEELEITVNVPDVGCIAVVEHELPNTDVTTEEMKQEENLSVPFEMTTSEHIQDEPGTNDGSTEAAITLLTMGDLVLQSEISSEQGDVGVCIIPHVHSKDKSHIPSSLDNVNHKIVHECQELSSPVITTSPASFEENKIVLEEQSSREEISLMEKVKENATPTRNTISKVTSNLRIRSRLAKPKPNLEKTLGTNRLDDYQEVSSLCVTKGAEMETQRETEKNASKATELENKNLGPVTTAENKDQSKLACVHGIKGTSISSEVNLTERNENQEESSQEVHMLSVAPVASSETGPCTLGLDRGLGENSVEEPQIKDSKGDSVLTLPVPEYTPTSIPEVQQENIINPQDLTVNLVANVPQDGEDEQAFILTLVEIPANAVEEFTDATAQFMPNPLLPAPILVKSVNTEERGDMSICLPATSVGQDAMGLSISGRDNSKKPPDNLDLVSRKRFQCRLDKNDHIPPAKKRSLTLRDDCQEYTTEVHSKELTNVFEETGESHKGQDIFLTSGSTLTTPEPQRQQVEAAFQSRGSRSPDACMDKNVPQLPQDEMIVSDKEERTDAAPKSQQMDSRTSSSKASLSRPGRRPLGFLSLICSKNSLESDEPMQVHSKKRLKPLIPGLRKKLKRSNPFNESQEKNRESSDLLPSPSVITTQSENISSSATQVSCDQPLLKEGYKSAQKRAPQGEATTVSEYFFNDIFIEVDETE
# UniProt A4QPH2, whole entry: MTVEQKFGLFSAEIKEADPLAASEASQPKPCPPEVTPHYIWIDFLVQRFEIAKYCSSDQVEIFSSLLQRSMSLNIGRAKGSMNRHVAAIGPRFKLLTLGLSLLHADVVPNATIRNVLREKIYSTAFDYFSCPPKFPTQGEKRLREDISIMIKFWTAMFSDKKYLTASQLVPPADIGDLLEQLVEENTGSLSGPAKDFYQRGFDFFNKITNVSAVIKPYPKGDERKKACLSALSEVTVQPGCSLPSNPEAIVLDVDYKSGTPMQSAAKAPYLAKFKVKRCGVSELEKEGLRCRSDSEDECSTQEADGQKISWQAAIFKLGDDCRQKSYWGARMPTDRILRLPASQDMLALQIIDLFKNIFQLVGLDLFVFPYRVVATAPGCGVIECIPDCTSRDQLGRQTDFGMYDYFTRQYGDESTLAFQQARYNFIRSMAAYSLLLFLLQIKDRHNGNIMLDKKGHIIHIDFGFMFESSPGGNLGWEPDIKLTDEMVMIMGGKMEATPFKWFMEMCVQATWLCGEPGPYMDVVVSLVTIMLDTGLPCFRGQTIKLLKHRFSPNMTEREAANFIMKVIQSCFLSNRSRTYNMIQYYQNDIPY
# The other results are listed elsewhere or left out. Small differences around the control level are noise.
# Compound: Cc1nc(Nc2ncc(C(=O)Nc3c(C)cccc3Cl)s2)cc(N2CCN(CCO)CC2)n1 [dasatinib]
# Assay: log2 fold change of tryptic peptide abundance, ligand vs vehicle (limited proteolysis) (log2 ratio); higher = more trypsin-susceptible (destabilized)
# Details: ligand concentration: 5 uM; sample: K562 cleared lysate
row,Target,log2 fold change
1,"CCDC85C (peptide sequence: EMCNVVWR, peptide start residue: 387) (UniProt A6NKD9)",0.21
2,"A0A1B0GVG4 (peptide sequence: LNVLEAEMSPQRRVPR, peptide start residue: 185), A0A1B0GVG4",-0.0288
3,"WIPF3 (peptide sequence: NGSLHIIDDFESK, peptide start residue: 410) (UniProt A6NGB9)",-0.374
4,"TBKBP1 (peptide sequence: GAQLREEQLQAECER, peptide start residue: 242) (UniProt A7MCY6)",-0.415
5,"A0A2Z4LIS9 (peptide sequence: STEEGEVAALR, peptide start residue: 26), A0A2Z4LIS9",0.121
6,"UniProt A6NMK7 (peptide sequence: MPECYFYSK, peptide start residue: 93)",0.0552
7,"A0A8V8TLL3 (peptide sequence: EAVVLGAAPAPR, peptide start residue: 203)",0.726
8,"FAM83G (peptide sequence: TGGSQWASSDSK, peptide start residue: 800) (UniProt A6ND36)",0.762
9,"C5orf51 (peptide sequence: ASAALEKLK, peptide start residue: 40) (UniProt A6NDU8)",-0.29
10,"PGP (peptide sequence: GETAVPGAPEALR, peptide start residue: 42) (UniProt A6NDG6)",0.181
11,"RCCD1 (peptide sequence: TGELYTWGWGK, peptide start residue: 318) (UniProt A6NED2)",-0.196
12,"UniProt A6NEC2 (peptide sequence: SKYTTPSGEVR, peptide start residue: 162)",0.696
13,"SMCHD1 (peptide sequence: GKRPIFECFWNGR, peptide start residue: 467) (UniProt A6NHR9)",-0.202
14,"TARSL2 (peptide sequence: ESEADSEVKHQPIFIK, peptide start residue: 117) (UniProt A2RTX5)",-1.33
15,"GTPBP10 (peptide sequence: QISVADLPGLIEGAHMNK, peptide start residue: 197) (UniProt A4D1E9)",0.266
16,"UniProt A6NF01 (peptide sequence: IVPAHVPTPIQPTFGGATHSAFGLK, peptide start residue: 996)",0.0643
17,"SH3PXD2B (peptide sequence: SFLPGEGPGR, peptide start residue: 699) (UniProt A1X283)",0.393

row,Target,log2 fold change
1,"MEX3A (peptide sequence: VHQPGCKPLSTFR, peptide start residue: 323) (UniProt A1L020)",0.12
2,"UniProt A3KMH1 (peptide sequence: LKEELQLSDEQLQKR, peptide start residue: 553)",-0.638
3,"WDR91 (peptide sequence: LSPAQGPPQPQSSAKK, peptide start residue: 276) (UniProt A4D1P6)",-0.633
4,"A0A1W2PR95 (peptide sequence: EYYLLHLQR, peptide start residue: 191), A0A1W2PR95",-0.275
5,"UniProt A6NKF1 (peptide sequence: LEVVPGCR, peptide start residue: 78)",0.0541
6,"A0A7P0TAN4 (peptide sequence: VLSNATSIANH, peptide start residue: 631)",0.159
7,"A0AUZ9 (peptide sequence: KGLLHCTQKK, peptide start residue: 190)",0.263
8,"UniProt A6NE01 (peptide sequence: KILSRGTLWK, peptide start residue: 193)",-0.0208
9,"A0A3B3IRV3 (peptide sequence: ESVSNCIQLK, peptide start residue: 9), A0A3B3IRV3",-0.000712
10,"DDTL (peptide sequence: SHSAHFFEFLTK, peptide start residue: 76) (UniProt A6NHG4)",0.135
11,"ZNF785 (peptide sequence: RLPHSCPDCGR, peptide start residue: 169) (UniProt A8K8V0)",-0.328
12,"ANKRD36 (peptide sequence: KPSLEATSDEK, peptide start residue: 924) (UniProt A6QL64)",0.529
13,"UniProt A4D2B8 (peptide sequence: AIKPIDRK, peptide start residue: 14)",0.0203
14,"UniProt A6NFD8 (peptide sequence: KRTPVSHK, peptide start residue: 9)",0.159
15,"BDP1 (peptide sequence: TILPKDETEKK, peptide start residue: 1606) (UniProt A6H8Y1)",-0.595
16,"CCDC88B (peptide sequence: AQELLLQSQR, peptide start residue: 1015) (UniProt A6NC98)",0.0811
17,"UniProt A4QPH2 (peptide sequence: CGVSELEK, peptide start residue: 1812)",-0.205

# Copied from the entries so far (3 entries):
row,Target,log2 fold change
11,"ZNF785 (peptide sequence: RLPHSCPDCGR, peptide start residue: 169) (UniProt A8K8V0)",-0.328
12,"ANKRD36 (peptide sequence: KPSLEATSDEK, peptide start residue: 924) (UniProt A6QL64)",0.529
13,"UniProt A4D2B8 (peptide sequence: AIKPIDRK, peptide start residue: 14)",0.0203
